Measurements reported in the supplement of paper PMC8551327.
The list shows a part of the results. Rule as the data show it: active = 1.25 or more and inactive = the rest. Many values rest on one well or one pass, so single values are uncertain.

System: Kcc2-LUC knock-in mouse primary cortical neurons (Kcc2 promoter reporter)
Experiment: Kcc2 promoter-driven luciferase activity relative to vehicle control (fold of vehicle (ratio)); higher = stronger Kcc2 promoter activation (Kcc2 expression enhancer)
Conditions: 100 nM; 48 h

SMILES	Kcc2 promoter-driven luciferase activity
Cc1ccccc1NC(=O)C(=O)C(C(=O)c1ccccc1F)C1OC(=O)c2ccccc21 (centres undefined)	active: 1.34
CC(C)C1=C(O)C2=C(C(=O)C1=O)C1(C)CCCC(C)(C)C1CC2O (centres undefined) [Horminon]	inactive: 1.09
O=C1C(CN2CCCCC2)CCCC1CN1CCCCC1 (centres undefined) [2,6-Bis(piperidin-1-ylmethyl)cyclohexan-1-one]	inactive: 0.81
O=C(CC(=O)C(F)(F)F)c1csc2ccccc12 [3-Thianaphthenoyltrifluoroacetone]	inactive: 0.36
NC(=O)c1c([N+](=O)[O-])cc(C(F)(F)F)cc1[N+](=O)[O-] [2,6-dinitro-4-(trifluoromethyl)benzamide]	inactive: 0.97
COC(=O)c1ccc(=O)c2nc3c(=CO)c(O)cc(=O)c3[nH]c12 [Lomofungin]	inactive: 1.04
Cc1c2cc[n+](CCN3CCCCC3)cc2c(C)c2c1[nH]c1ccc(O)cc12	inactive: 0.8
Cc1ccc([S+](c2ccc(C)cc2)c2ccc(C)cc2)cc1 [Tris(4-methylphenyl)sulfonium Chloride]	inactive: 1.11
COC(=O)[C@@H]1[C@H]2C[C@@H]3c4[nH]c5ccccc5c4CCN3C[C@@H]2CC[C@@H]1O [Pseudoyohimbine]	inactive: 0.908
Nc1ccc(S(=O)(=O)Nc2cnc3c(Cl)cccc3n2)cc1 [Chlorsulfaquinoxaline]	active: 1.39
CC(C)C(=O)OCN(C)c1nc(N(C)COC(=O)C(C)C)nc(N(C)COC(=O)C(C)C)n1 [N2,N6-Triisobutyryloxymthyl-N2,N4,N6-trimethylmelamine]	inactive: 0.87
CC(C)(C)OC(=O)NC(Cc1ccccc1)C(=O)OCN1C(=O)C2C3C=CC(C2C1=O)C1C2C(=O)N(COC(=O)C(Cc4ccccc4)NC(=O)OC(C)(C)C)C(=O)C2C31 (centres undefined)	inactive: 1.04
CN(Cc1cnc2nc(N)nc(N)c2n1)c1ccc(C(=O)N[C@@H](CCC(=O)O)C(=O)O)cc1 [Methotrexate]	inactive: 0.48
O=C1CC[C@@H](C(=O)O)N1 [Pidolic Acid]	active: 1.26
COc1cc(CC(=O)c2cc3c(cc2-c2ccccc2)OCO3)cc(OC)c1OC	inactive: 0.79
CCN(CC)CCCC(C)Nc1ccnc(/C=C/c2ccc(Cl)cc2)c1 (centres undefined) [Pyridine, (E)-]	active: 1.27
CCN(CC)CCCC(C)NC(=O)c1ccc2c(c1)C(=O)c1ccccc1C2=O (centres undefined)	inactive: 0.77
C=C1C(=O)O[C@H]2C[C@@H]1C(OC(C)=O)C/C(C)=C/CC/C(C)=C/CC[C@@]2(C)O (some centres undefined) [Crassin Acetate]	inactive: 1
NC(=S)N/N=C/c1ncccc1O [[(E)-(3-Hydroxy-2-pyridyl)methyleneamino]thiourea]	inactive: 1.14
COc1cc(Cc2nccc3cc(OC)c(OC)cc23)c(C(C)=O)cc1OC [Pseudocoralyne; Acetopapaverine;]	inactive: 0.62

Two of the compounds above, as a markdown table:

| SMILES | Kcc2 promoter-driven luciferase activity |
| --- | --- |
| COC(=O)[C@@H]1[C@H]2C[C@@H]3c4[nH]c5ccccc5c4CCN3C[C@@H]2CC[C@@H]1O [Pseudoyohimbine] | inactive: 0.908 |
| Nc1ccc(S(=O)(=O)Nc2cnc3c(Cl)cccc3n2)cc1 [Chlorsulfaquinoxaline] | active: 1.39 |

Remaining list, next part

SMILES	Kcc2 promoter-driven luciferase activity
CS(=O)(=O)c1nc(N)nc2nc[nH]c12 [6-(Methylsulfonyl)-9H-purin-2-amine]	inactive: 1.08
CC1(C)N=C(N)N=C(N)N1c1ccc(CCCCc2ccc(Cl)cc2Cl)cc1	inactive: 0.925
COc1ccc(-c2cc(-c3ccccc3)nc3c2CC(=O)Nc2ccccc2-3)cc1OC	inactive: 0.74
COC(C(=O)C(O)C(C)O)C1Cc2cc3cc(OC4CC(OC5CC(O)C(O)C(C)O5)C(O)C(C)O4)c(C)c(O)c3c(O)c2C(=O)C1OC1CC(OC2CC(OC3CC(O)C(OC)C(C)O3)C(O)C(C)O2)C(O)C(C)O1 (centres undefined) [Variamycin]	inactive: 1.11
Cc1ccc(S(=O)(=O)ON=C2CC(c3ccccc3)N(C)C(c3ccccc3)C2)cc1 (centres undefined)	inactive: 0.93
CC1(C)S[C@@H]2[C@H](NC(=O)C(C(=O)O)c3ccccc3)C(=O)N2[C@H]1C(=O)O (some centres undefined) [Carbenicillin]	inactive: 1.05
COC(=O)NC1C(C)OC(OC2C/C=C(/C)C3C=CC4C(OC5CC(OC6CC(O)C(OC7CC(O)C(OC)C(C)O7)C(C)O6)C(O)C(C)O5)C(C)CC(C)C4C3(C)/C(O)=C3\C(=O)OC4(CC(C)C(CO)=CC4/C=C\2C)C3=O)CC1(C)[N+](=O)[O-] (centres undefined) [Kijanimicin Deriv]	inactive: 1.09
COc1cc(C(O)CCBr)c(OC)cc1C (centres undefined) [3-Bromo-1-(2,5-dimethoxy-4-methylphenyl)-1-propanol]	inactive: 1.04
O=C1C=C(Nc2cccnc2)c2ccccc2C1=O [4-(pyridin-3-ylamino)naphthalene-1,2-dione]	inactive: 0.33
CC(=Nc1ccccc1)C1=C(O)C(Cc2ccccc2)NC1=O (centres undefined) [(3E)-3-(1-Anilinoethylidene)-g-benzylpyrrolidine-2,4-dione]	inactive: 1.11
O=S(=O)(O)c1cc(N=Nc2cc(S(=O)(=O)O)c3ccccc3c2O)ccc1/C=C/c1ccc(N=Nc2cc(S(=O)(=O)O)c3ccccc3c2O)cc1S(=O)(=O)O	inactive: 1.01
Cc1cccc(C)c1NC(=O)C(=O)C(c1ccccc1Cl)S(=O)(=O)Cc1ccccc1Cl (centres undefined)	inactive: 1.11
CC1CCCC(C(=O)/C(=C/c2cccc(Cl)c2)C(=O)C(=O)O)C1 (centres undefined)	inactive: 0.88
CC(=O)C(N1CCCCC1)C(O)(C(F)(F)F)C(F)(F)F (centres undefined)	inactive: 1.21
CCN(CC)CCOc1ccccc1/C=C/c1noc2ccccc12	inactive: 0.8
Nc1nc(=S)c2ncn([C@@H]3C[C@H](O)[C@@H](CO)O3)c2[nH]1 [.alpha.-Thiodeoxyguanosine]	inactive: 0.7
O=c1oc2ccccc2cc1-c1ccc([N+](=O)[O-])cc1 [2H-1-Benzopyran-2-one,3-(4-nitrophenyl)-]	inactive: 0.27
CC1(C)O[C@@H]2C[C@H]3[C@@H]4C[C@H](F)C5=CC(=O)C=C[C@]5(C)[C@@]4(F)[C@@H](O)C[C@]3(C)[C@]2(C(=O)CO)O1	active: 1.33
OC[C@H]1O[C@@H](n2cnc3c(SCc4ccccc4)ncnc32)[C@H](O)[C@@H]1O [6-Benzylthioinosine]	inactive: 0.98
